Laboratory results published in PubChem BioAssay AID652054 (National Center for Advancing Translational Sciences (NCATS), 2013).
Among all 360,000 compounds or so, about 9,100 (2.5%) were called active. The inconclusive results got no clear call from the source; some entries with a clear call stand among them for comparison. Rule as the data show it: active = max response below about -50%; inconclusive = no clear call, values can overlap the other calls; inactive = above that.

By UniProt entry, the sequences of proteins in these tests, tags left out.
UniProt P35462, whole entry, looked up: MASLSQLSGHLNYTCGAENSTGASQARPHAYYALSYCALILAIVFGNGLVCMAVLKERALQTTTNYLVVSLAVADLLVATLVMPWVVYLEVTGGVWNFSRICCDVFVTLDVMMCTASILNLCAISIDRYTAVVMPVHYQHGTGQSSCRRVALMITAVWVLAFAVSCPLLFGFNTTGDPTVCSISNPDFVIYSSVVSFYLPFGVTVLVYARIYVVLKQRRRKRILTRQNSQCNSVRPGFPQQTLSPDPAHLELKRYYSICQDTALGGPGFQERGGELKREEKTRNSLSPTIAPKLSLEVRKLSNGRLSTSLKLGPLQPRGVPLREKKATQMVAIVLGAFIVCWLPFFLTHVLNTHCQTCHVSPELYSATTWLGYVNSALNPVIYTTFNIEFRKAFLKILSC

molecular target: D(3) dopamine receptor (Homo sapiens) (UniProt P35462); experiment: qHTS of D3 Dopamine Receptor Antagonist: qHTS; settings: D3R cells, DiscoveRx beta-arrestin luminescence, antagonist mode; stronger effect = lower value
Method in brief: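 Cells expressing the human receptor were seeded at 1500 cells/well, incubated overnight at 37 degrees C in 5% CO2, then exposed to library compounds with dopamine controls for 90 minutes at 37 degrees C before luminescent detection.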
% is scaled to controls: 0 for no effect and ±100 for the full control effect.

SMILES | max response, negative = inhibition
NC(=O)C[n+]1cccc(C(=O)Nc2ccccc2)c1 | active: -67.3%
C=CCc1ccc(OCCOCCNCCCC)c(OC)c1 | inconclusive: -44.1%
CC(=O)c1ccc2c(c1)C1C=CCC1C(c1cc3c(cc1Br)OCO3)N2 (stereo not drawn) | inconclusive: -31%
Cc1ccccc1OCC(O)CN1CCN(CC(O)COc2ccccc2C)CC1 (stereo not drawn) | active: -57.4%
CN(C)c1ccc(/C=C(\C#N)C(=O)Nc2nc3c(s2)CCN(Cc2ccccc2)C3)cc1 | inconclusive: -33.4%
O=C(Nc1ccc(N2CCN(C(=O)c3cccs3)CC2)cc1)c1ccccc1F | inactive: 2.84%
O=C(CN1c2ccccc2Sc2ccccc21)NNC(=O)Nc1cccc(Cl)c1 | inconclusive: -45%
CCOC(=O)/C=C/C(=O)Nc1ccc(S(=O)(=O)Nc2nccs2)cc1 | inconclusive: -33.1%
Cc1c(/C=N/NC(=O)c2sc3ccccc3c2Cl)cnn1C | inconclusive: -34.6%
CC(O)(CS(=O)(=O)Cc1ccccc1Cl)C(=O)Nc1cccc(C(F)(F)F)c1 (stereo not drawn) | inconclusive: -32%
O=C(NC(c1ccc(Cl)cc1)c1ccccn1)C1CCN(CCOc2ccc(Cl)cc2Cl)CC1 (stereo not drawn) | active: -76.5%
COc1ccc(Cl)cc1NC(=O)CN(C)C(=O)c1cc(-c2ccncc2)nc2ccccc12 | inconclusive: -39.9%
CS(=O)(=O)Nc1ccccc1C(=O)NCc1ccco1 | inconclusive: -47.8%
C=C(Br)CN1[C@@H](Cc2ccccc2)[C@H](O)[C@@]23C=C[C@@H](C[C@@H]2S1(=O)=O)O3 | inactive: 27.4%
COc1ccccc1N1CCN(Cc2cccs2)CC1 | active: -82.3%
CC(C)(O)CC[C@@H](O)[C@](C)(O)[C@H]1CC[C@@]2(O)C3=CC(=O)[C@@H]4C[C@@H](O)[C@@H](O)C[C@]4(C)[C@H]3CC[C@]12C | inactive: 13.8%
Cc1noc(C)c1C(=O)N1CCN(C(=O)c2sc3cc(Cl)ccc3c2Cl)CC1 | inconclusive: -35.6%
CC(=O)[C@H]1CC[C@H]2[C@@H]3CCC4=CC(=O)CC[C@]4(C)[C@H]3[C@H](O)C[C@]12C | inconclusive: -31.8%
CC1(C(=O)NC2CCN(Cc3ccccc3)CC2)CCN1Cc1ccc(OC(F)(F)F)cc1 (stereo not drawn) | active: -65.4%
O=C(C(=O)N1CCN(Cc2ccccc2)CC1)c1c[nH]c2ccccc12 | inconclusive: -49.4%
Cc1ccc(S(=O)(=O)NCc2ccc3c(c2)OCO3)cc1C | inconclusive: -36.4%
C=CCc1ccccc1OCC(O)CN1CCN(C(=O)OCC)CC1 (stereo not drawn) | inconclusive: -38.7%
Cc1cc(-c2ccc(C(C)C)c(S(=O)(=O)N3CCN(c4ccccc4)CC3)c2)on1 | inconclusive: -33.9%
COc1ccccc1C(=O)OCn1nnc2ccccc2c1=O | inconclusive: -34.2%
Cc1ncsc1C(=O)N1CCCC(CNS(=O)(=O)c2cccs2)C1 (stereo not drawn) | inconclusive: -48.9%
Clc1ccc(C(CCN2CCCC2)Cc2ccccc2)cc1 (stereo not drawn) | inconclusive: -45.4%
NS(=O)(=O)c1ccc(CNC(=O)c2sccc2-c2ccccc2)cc1 | inconclusive: -31.3%
CSc1ccccc1C(=O)NC1CC2CCC1C2 (stereo not drawn) | inconclusive: -31.5%

Ordered by length of the SMILES (ascending): part of the list above.
SMILES | max response, negative = inhibition
Cc1ccccc1OCC(O)CN1CCN(CC(O)COc2ccccc2C)CC1 (stereo not drawn) | active: -57.4%
CC(=O)c1ccc2c(c1)C1C=CCC1C(c1cc3c(cc1Br)OCO3)N2 (stereo not drawn) | inconclusive: -31%
CC(=O)[C@H]1CC[C@H]2[C@@H]3CCC4=CC(=O)CC[C@]4(C)[C@H]3[C@H](O)C[C@]12C | inconclusive: -31.8%
